Experimental data from doi:10.1101/2022.08.24.505075.
No constants are given. Whether binding was seen depends on the method and setting. In cells and extracts the contact can be indirect. Here binding means that the protein was enriched with, or labelled near, the bait; the list need not be complete.

Amino acid sequences for entries named in this document (tags omitted).
UniProt Q969H0: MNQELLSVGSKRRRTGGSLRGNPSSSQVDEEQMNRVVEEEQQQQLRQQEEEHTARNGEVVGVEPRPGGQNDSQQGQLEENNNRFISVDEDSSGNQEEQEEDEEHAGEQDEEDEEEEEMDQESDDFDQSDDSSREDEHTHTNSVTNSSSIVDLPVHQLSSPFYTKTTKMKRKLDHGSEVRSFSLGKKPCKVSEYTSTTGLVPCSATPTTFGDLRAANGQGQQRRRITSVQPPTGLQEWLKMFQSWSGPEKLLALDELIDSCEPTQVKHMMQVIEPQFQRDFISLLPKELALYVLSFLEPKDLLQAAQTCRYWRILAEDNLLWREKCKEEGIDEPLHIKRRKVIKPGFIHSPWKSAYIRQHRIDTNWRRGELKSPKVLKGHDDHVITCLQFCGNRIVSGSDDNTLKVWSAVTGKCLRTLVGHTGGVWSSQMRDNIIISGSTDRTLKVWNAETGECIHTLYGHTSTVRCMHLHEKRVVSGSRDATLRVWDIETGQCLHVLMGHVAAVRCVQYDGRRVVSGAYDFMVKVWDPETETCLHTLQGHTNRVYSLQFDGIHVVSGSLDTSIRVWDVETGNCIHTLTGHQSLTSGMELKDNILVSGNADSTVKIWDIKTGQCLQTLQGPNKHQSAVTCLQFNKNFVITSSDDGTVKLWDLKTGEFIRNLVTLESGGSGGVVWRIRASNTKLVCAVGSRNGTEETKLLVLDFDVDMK
UniProt P01106: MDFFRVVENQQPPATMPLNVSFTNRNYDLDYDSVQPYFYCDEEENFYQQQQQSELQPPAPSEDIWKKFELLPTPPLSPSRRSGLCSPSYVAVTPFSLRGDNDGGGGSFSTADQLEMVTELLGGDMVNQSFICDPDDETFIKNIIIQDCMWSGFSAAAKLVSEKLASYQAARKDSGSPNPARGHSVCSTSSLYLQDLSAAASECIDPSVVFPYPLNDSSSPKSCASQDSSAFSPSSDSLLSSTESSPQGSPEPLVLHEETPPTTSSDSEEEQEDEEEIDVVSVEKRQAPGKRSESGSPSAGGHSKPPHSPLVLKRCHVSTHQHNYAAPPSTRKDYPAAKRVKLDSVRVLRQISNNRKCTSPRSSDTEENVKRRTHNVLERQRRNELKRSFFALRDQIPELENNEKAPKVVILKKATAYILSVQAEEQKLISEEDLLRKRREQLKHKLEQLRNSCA

Target: Flag-tagged FBXW7α (human) (UniProt Q969H0)
Test: affinity purification with mass spectrometry

Substance: c-Myc (from UniProt P01106 1-454)
- binding: binds
